Results from one PubChem assay

Source: PubChem BioAssay AID1159506 (NCATS, 2015).

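Luminescence from an EWS-FLI1 target-promoter (NR0B1) reporter, set against a CMV-promoter reporter, two days after silencing single genes in TC32 Ewing sarcoma cells.
Each siRNA was applied at 20 nM.
A z-score of the log NR0B1-over-CMV signal, less the median of siRNAs with the same seed; more negative means a stronger specific loss of the NR0B1 reporter.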

The strongest results of the screen are mostly left out here.
Sequences are the guide (antisense) strand, without overhang.

| Sequence | gene | seed-corrected z-score |
|---|---|---|
| `UAAGCUGCCUUGGAUGUUG` | NRN1 | -0.3972 |
| `UAUGCUAUCUGAGCCGUCU` | HMBS | -0.3503 |
| `AGACCAGUUACUAGUAUCC` | PARD3 | 0.3135 |
| `UUUGCCUUCUCCUAAUUCC` | CYP7A1 | -1.222 |
| `UCUGGGCACGUUGAUAUCC` | SHISA7 | 0.7626 |
| `AAUUUGCUUAGGUAAUCUC` | TTC1 | -0.2538 |
| `AGUAAUAGAAUCCUGGUCC` | TAF1 | 1.474 |
| `UCAGGUACCACUUGUACUU` | ZG16 | 0.03945 |
| `UUAACAACAGGUUUCAACG` | WDR83OS | 0.2691 |
| `UGAAUGACUCUGUAGAUGA` | TEX29 | 1.438 |
| `UCGAAAUGCAUUACGAUCC` | EFCAB1 | 0.3339 |
| `UUUGUUUCUGUCCUAAUUC` | LUZP2 | -1.151 |
| `ACAUAUUGUAGGUAUAGCC` | TOX3 | -0.3599 |
| `UUUGAUAGCAUCCAUAGUG` | COL1A2 | -0.2454 |
| `UUUGAGGUCAAUCACGGCG` | FRS3 | -1.096 |
| `UAUCUUAACUUCCCGUCCG` | MAGOH | 0.488 |
| `UUUGCCUUUACAGUUUUCC` | LSM12 | -0.8767 |
| `AAUGUUGACAGCUAGAACC` | AP1G2 | 0.2122 |
| `UGAUGACCUGGUCUAAUUC` | CFAP58 | -0.005396 |
| `UAUGAACCGGAAAACAUCC` | OCM2 | 0.3453 |
| `UUCAGUGCCUAUCUCCUCC` | TIGD3 | -0.5233 |
| `AAGUGGAAUACAUCCAUGU` | IL21R | 0.6821 |
| `UCUGAGGUCAUAGAAAGGG` | DERL3 | -0.6659 |
| `UACCAUCUCGCAAUAGGGC` | PPM1K | 0.1095 |
| `UAGUAAAUCCCAUAGAGCG` | CLPS | 0.19 |
| `UUUAUAGUAAUAACAGAGC` | CRYM-AS1 | 0.5295 |
| `AAUCCAUUCACCAGUGUUC` | PFN4 | 0.1123 |
| `UUGCGGAUCAAAUCCACUC` | LIPK | 0.5269 |
| `UCUUGUUUGAGAUCUAAAC` | EPPIN | 0.105 |
| `AAAGCUCAAACUUGAUAGG` | CTGF | 0.725 |
| `UGAAAUUGCCGAGCACUGC` | SLC2A6 | 0.8379 |
| `UAAUGUCUCGUUGUCCUGG` | PIGT | -0.07726 |
| `UUAUUAUUGAUGUCAAAAG` | UFSP1 | 0.4222 |
| `UCGUUGAUGACAAUGGUGC` | FRAS1 | -0.8059 |
| `AUAGAAGUAUUUGCGGUAG` | SIPA1 | 0.07656 |
| `UAUUUACGAACAUAUAUCC` | LMBRD1 | 0.7024 |
| `UGUUUUCCCUAUAUAGAUG` | LILRA2 | -0.32 |
| `UAGAUGCUCCAUGAUAUGC` | MCFD2 | -0.1518 |
| `AAUGUGACCAGUGGGAUGG` | SLC7A8 | -1.402 |
| `UUCUGUCCCGUUGAAGAAG` | GGT5 | -0.2614 |
| `UUUGGGACACUUGCUGCUG` | CCL2 | 0.01865 |

The last 5 entries again:

{"sequence": "UGUUUUCCCUAUAUAGAUG", "gene": "LILRA2", "seed-corrected z-score": "-0.32"}
{"sequence": "UAGAUGCUCCAUGAUAUGC", "gene": "MCFD2", "seed-corrected z-score": "-0.1518"}
{"sequence": "AAUGUGACCAGUGGGAUGG", "gene": "SLC7A8", "seed-corrected z-score": "-1.402"}
{"sequence": "UUCUGUCCCGUUGAAGAAG", "gene": "GGT5", "seed-corrected z-score": "-0.2614"}
{"sequence": "UUUGGGACACUUGCUGCUG", "gene": "CCL2", "seed-corrected z-score": "0.01865"}